Measurements from PMC9433319.
These are yes or no findings as the source states them, for the method shown. Binding seen in cells or lysates may run through a third protein. A yes stands for co-enrichment or nearness to the bait. Other partners may have been found.

Protein sequences, listed by entry. Tags and fused reporters are not part of them.
UniProt Q92624: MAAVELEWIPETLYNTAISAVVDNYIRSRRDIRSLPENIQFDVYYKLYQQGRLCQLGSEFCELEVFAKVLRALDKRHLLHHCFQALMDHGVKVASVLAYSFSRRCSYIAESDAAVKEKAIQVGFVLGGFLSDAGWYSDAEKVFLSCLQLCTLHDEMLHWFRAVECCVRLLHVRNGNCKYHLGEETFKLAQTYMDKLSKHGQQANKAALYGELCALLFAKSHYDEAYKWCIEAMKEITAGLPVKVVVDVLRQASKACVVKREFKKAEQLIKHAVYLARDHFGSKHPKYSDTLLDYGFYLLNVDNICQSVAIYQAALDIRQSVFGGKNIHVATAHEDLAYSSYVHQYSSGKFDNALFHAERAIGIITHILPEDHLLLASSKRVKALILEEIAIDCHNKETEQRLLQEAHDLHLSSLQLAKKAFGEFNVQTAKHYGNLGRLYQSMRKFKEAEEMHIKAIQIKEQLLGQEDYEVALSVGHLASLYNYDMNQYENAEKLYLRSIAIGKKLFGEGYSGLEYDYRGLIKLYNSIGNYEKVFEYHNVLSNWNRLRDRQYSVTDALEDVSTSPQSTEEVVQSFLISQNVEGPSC
UniProt P14404: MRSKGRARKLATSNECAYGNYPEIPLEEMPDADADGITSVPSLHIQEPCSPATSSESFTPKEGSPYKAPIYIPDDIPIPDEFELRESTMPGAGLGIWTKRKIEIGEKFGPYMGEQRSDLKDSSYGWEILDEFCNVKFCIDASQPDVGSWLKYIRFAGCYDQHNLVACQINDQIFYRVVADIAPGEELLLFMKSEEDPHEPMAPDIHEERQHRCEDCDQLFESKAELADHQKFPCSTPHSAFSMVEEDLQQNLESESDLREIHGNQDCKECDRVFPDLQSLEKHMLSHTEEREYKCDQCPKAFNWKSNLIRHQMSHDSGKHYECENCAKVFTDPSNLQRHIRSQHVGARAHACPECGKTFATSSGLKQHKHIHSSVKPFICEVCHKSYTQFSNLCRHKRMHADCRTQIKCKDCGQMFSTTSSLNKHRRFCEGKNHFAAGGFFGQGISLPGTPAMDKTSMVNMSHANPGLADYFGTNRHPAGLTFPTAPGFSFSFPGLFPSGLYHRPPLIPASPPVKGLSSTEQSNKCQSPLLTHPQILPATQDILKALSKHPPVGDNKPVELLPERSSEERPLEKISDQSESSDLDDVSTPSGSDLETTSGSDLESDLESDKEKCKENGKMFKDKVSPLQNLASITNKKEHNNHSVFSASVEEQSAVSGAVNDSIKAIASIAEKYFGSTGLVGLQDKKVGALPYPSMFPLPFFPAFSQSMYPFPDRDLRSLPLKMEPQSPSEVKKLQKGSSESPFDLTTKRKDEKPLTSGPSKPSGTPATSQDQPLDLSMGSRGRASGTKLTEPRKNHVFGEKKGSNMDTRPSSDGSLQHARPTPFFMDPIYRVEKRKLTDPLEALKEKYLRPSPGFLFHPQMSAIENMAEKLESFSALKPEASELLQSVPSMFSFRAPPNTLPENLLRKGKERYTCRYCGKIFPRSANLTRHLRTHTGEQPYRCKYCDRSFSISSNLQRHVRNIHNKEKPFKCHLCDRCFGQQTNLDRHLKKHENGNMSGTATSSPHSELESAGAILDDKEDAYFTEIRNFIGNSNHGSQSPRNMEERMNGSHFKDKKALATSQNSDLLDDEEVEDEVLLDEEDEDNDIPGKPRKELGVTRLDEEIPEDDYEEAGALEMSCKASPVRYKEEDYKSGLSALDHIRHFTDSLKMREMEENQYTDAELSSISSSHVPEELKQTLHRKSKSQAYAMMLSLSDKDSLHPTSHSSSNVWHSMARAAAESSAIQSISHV
UniProt P97471: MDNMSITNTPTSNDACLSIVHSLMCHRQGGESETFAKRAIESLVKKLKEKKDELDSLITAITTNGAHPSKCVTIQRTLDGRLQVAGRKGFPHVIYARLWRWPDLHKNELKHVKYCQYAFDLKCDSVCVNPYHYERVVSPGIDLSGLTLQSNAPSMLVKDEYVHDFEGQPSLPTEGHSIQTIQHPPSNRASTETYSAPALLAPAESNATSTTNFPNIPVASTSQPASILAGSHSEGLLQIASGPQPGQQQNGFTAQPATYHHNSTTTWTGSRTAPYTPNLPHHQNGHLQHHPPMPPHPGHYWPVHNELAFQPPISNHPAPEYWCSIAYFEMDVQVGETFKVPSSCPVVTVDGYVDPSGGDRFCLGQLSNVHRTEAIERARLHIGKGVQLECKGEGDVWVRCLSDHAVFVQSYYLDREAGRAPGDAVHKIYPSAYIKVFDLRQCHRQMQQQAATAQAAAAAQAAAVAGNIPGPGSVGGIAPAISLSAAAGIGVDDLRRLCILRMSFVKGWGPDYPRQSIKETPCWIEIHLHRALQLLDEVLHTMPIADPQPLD
UniProt A2A935: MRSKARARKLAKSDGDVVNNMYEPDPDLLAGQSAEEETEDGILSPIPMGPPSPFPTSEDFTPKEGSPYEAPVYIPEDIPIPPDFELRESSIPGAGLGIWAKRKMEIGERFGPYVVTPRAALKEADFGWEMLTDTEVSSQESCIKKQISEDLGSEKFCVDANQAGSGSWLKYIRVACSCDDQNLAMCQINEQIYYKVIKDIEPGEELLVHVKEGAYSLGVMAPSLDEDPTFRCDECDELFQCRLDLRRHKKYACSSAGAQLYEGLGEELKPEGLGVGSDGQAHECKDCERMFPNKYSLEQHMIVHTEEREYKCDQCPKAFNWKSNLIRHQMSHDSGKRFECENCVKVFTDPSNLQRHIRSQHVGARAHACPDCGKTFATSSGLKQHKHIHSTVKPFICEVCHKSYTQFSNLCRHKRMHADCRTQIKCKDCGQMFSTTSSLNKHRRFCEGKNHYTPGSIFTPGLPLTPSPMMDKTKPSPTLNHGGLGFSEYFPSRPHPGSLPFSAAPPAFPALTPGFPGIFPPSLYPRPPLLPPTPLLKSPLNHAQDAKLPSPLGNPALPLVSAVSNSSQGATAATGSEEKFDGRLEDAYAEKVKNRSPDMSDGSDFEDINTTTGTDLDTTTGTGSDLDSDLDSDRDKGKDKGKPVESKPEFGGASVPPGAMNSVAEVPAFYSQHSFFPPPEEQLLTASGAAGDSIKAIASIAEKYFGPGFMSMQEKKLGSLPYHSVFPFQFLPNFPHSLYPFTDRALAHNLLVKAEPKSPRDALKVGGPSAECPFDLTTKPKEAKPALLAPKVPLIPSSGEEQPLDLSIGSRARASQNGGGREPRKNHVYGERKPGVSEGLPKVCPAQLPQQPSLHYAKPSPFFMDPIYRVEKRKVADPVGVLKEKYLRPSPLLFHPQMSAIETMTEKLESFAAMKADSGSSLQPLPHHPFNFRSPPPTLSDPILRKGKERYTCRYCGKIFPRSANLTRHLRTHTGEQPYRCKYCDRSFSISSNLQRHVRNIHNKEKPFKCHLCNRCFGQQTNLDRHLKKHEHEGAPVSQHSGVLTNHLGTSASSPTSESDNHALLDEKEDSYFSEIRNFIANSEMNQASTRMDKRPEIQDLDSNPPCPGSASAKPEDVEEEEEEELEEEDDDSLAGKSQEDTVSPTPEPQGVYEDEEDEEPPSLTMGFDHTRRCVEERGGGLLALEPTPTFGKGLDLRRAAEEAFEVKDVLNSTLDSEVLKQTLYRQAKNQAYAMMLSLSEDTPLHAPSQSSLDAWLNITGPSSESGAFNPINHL

B1: EHD2, endogenous (protein, UniProt Q8BH64 1-543)
chain: MFSWLKKGGARGQRPEAIRTVTSSLKELYRTKLLPLEEHYRFGSFHSPALEDADFDGKPMVLVAGQYSTGKTSFIQYLLEQEVPGSRVGPEPTTDCFVAVMHGETEGTVPGNALVVDPEKPFRKLNPFGNTFLNRFMCAQLPNQVLESISIIDTPGILSGAKQRVSRGYDFPAVLRWFAERVDLIILLFDAHKLEISDEFSEAIGALRGHEDKIRVVLNKADMVETQQLMRVYGALMWALGKVVGTPEVLRVYIGSFWSQPLLVPDNRRLFELEEQDLFRDIQGLPRHAALRKLNDLVKRARLVRVHAYIISYLKKEMPTVFGKENKKKQLILKLPVIFAKIQLEHHISPGDFPDCQKMQELLMAHDFTKFHSLKPKLLEALDDMLAQDIAKLMPLLRQEELESVEAGVQGGAFEGTRMGPFVERGPDEAIEDGEEGSEDDAEWVVTKDKSKYDEIFYNLAPADGKLSGSKAKTWMVGTKLPNSVLGRIWKLSDVDRDGMLDDEEFALASHLIEAKLEGHGLPTNLPRRLVPPSKRRQKGSAE

Target: HA-tagged APPBP2 (codon-optimized human Appbp2 cDNA) (human) (UniProt Q92624)
Assay: affinity purification with mass spectrometry; HA-tagged Appbp2 complex from nuclear extracts of differentiated Appbp2-KO adipocytes treated with MG132; anti-HA magnetic beads 2 h; binding buffer 50 mM Tris-Cl pH 7.4, 150 mM NaCl, 0.5% Triton X-100; eluted by 3xHA peptide; LC-MS/MS

binding | Molecule
binds | PRDM3, endogenous (from UniProt P14404 1-1232)
binds | SMAD4, endogenous (from UniProt P97471 1-551)
binds | PRDM16 (PR domain-containing 16), endogenous (from UniProt A2A935 1-1275)
binds | B1
